Measurements: PubChem BioAssay AID651660 (Broad Institute, 2012)
Among all 1,900 compounds or so, about 15 (0.8%) were called active.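 Rule for the calls: active = every replicate shows at least 50% inhibition; inconclusive = mean inhibition at least 50% but some replicate below; inactive = the rest.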 This is one part of the list.

Sequences of proteins named here, by UniProt entry; tags and fusion partners are left off. A change or cut given only in a name is not applied to a line headed by its entry.
UniProt P43351: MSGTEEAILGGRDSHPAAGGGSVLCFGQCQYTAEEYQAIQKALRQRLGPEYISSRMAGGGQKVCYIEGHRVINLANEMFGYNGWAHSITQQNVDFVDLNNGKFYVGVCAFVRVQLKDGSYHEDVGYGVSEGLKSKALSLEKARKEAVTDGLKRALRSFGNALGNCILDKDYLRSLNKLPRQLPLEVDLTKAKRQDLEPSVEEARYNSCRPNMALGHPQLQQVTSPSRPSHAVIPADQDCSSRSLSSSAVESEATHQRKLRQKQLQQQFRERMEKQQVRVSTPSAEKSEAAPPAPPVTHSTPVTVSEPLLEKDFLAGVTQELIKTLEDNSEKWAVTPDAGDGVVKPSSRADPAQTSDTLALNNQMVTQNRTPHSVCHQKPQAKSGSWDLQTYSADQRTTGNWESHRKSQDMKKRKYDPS

The molecules below were run against DNA repair protein RAD52 homolog (Homo sapiens) (UniProt P43351) (assay: RAD52 ssDNA annealing inhibitors, primary screen, biochemical, FRET, single point (AID 651660;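 note: 0% = median of neutral control wells and 100% = median of positive control wells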)). Settings: Recombinant RAD52 ssDNA annealing, FRET fluorescence, 30 min; at 18.7 µM; active compounds read high.

inhibition, inactive:
CC12CCC(C(=O)Nc3ccccc3Br)(C/C1=N\O)C2(C)C (stereo unspecified) -2.53%
COc1ccc2cc(C3(C)NC(=O)NC3=O)ccc2c1 (stereo unspecified) 13.1%
Clc1ccc2c(c1)[C@H]1OCC[C@H]1[C@@H](c1ccco1)N2 -28%
Cc1ccccc1OCCSc1nc2ncnc(N)c2[nH]1 0.171%
COc1ccc2nc(S(=O)Cc3ncc(C)c(OC)c3C)[nH]c2c1 (stereo unspecified) 5.21%
O=c1cc(CN2CCN(c3cccc(Cl)c3)CC2)c2cc(O)c(-c3ccccc3)cc2o1 -53.6%
COc1ccc2oc(=O)c(-c3nc(C)cs3)cc2c1 -14.6%
O=CNC1CCCc2c1[nH]c1ccc(Cl)cc21 (stereo unspecified) 4.12%
CCCC(=O)O[C@]1(C(=O)CO)CC[C@H]2[C@@H]3CCC4=CC(=O)CC[C@]4(C)[C@H]3[C@@H](O)C[C@@]21C -6.55%
CC(C)C(=O)Nc1ccc2c3c(cccc13)CC2 -4.24%
COc1cc2c(cc1OC)C1(CCCCC1)CN(C)C2 1.04%
O=c1[nH]c(=O)n([C@H]2C[C@H](O)[C@@H](CO)O2)cc1C(F)(F)F -2.85%
CCCCCCCCNC(C)C(O)c1ccc(SC(C)C)cc1 (stereo unspecified) 24.6%
CC(=O)CC(c1ccc([N+](=O)[O-])cc1)c1c(O)c2ccccc2oc1=O (stereo unspecified) 0.581%
COc1ccc2[nH]c(C)c(CN3CCC(C)CC3)c(=O)c2c1 7.55%
Cc1ccccc1C(=O)NCC(=O)O -15.9%
O=C(CCCN1CCC(O)(c2ccc(Cl)cc2)CC1)c1ccc(F)cc1 4.86%
O=C(NC(=S)Nc1nc(-c2ccccc2)cs1)c1ccco1 -25.2%
C=C(C)COc1ccc(-c2n[nH]c(C)c2-c2ccc(OC)cc2)c(O)c1 17.8%
COc1ccc2c(c1)C(=O)CC(c1ccccc1F)O2 (stereo unspecified) 4.55%
CC1(C)CC(c2csc(N)n2)CCO1 (stereo unspecified) -1.66%
COCCOC(=O)C1=C(C)NC(C)=C(C(=O)OC(C)C)C1c1cccc([N+](=O)[O-])c1 (stereo unspecified) 4.98%
CN1C(C(=O)Nc2ccccn2)=C(O)c2ccccc2S1(=O)=O 3.33%
Cc1ccc2c(ccc(=S)n2C)c1 -5.88%
O=C(O)CCCNc1ccc(S(=O)(=O)Nc2ccccc2C(=O)O)cc1C(=O)O -12.9%
CC1(C)[C@@H](O)CC[C@]2(C)[C@H]3C(=O)C=C4[C@@H]5C[C@@](C)(C(=O)O)CC[C@]5(C)CC[C@@]4(C)[C@]3(C)CC[C@@H]12 -1.28%

Two compounds drawn at random from the list so far, as already listed:
inhibition, inactive:
CC1(C)CC(c2csc(N)n2)CCO1 (stereo unspecified) -1.66%
CC12CCC(C(=O)Nc3ccccc3Br)(C/C1=N\O)C2(C)C (stereo unspecified) -2.53%
